# Laboratory results taken from PMC8110579.
# Amino acid sequences for entries named in this document (tags omitted). A change or cut given only in a name is not applied to a line headed by its entry.
# UniProt Q8TDG2: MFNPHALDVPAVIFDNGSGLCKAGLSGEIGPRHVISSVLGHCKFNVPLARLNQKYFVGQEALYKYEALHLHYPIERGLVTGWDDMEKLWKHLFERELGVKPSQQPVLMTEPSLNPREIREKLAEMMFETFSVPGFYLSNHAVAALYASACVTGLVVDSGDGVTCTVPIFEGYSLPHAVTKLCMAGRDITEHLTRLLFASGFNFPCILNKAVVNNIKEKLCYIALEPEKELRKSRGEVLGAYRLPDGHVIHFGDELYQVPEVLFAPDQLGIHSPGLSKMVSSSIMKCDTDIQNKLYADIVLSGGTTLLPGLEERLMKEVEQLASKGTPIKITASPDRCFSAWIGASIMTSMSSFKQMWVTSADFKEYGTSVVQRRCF
# UniProt P23258: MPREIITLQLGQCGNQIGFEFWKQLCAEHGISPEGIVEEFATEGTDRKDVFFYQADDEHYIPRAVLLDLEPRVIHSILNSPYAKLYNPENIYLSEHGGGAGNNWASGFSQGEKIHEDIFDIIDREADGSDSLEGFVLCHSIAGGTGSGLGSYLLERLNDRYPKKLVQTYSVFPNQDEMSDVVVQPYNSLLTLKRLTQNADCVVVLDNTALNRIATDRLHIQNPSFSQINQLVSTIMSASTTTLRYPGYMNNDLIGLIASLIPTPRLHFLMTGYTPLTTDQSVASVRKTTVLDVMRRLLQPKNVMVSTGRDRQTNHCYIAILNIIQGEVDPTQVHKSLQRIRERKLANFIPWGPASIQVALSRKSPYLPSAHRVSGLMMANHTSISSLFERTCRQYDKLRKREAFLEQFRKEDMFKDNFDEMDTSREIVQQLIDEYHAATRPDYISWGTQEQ
# No constants are given. Whether binding was seen depends on the method and setting. Binding seen in cells or lysates may run through a third protein. Binding can be weak; no strength is given.
# Key:
# [1] = biological target: ARP-T1 (untagged, detected with ARP-T1 antibody) (human (endogenous in hTERT-RPE1)) (UniProt Q8TDG2); test: proximity ligation; proximity ligation assays (Supplementary Fig. 1f, g); cells and antibodies not told in the text shown
# [2] = biological target: Actin-Related Protein-Testis1 (ARP-T1), wild type, tagged with DDK (human) (UniProt Q8TDG2); test: co-IP; ARP-T1-DDK from transduced HeLa (Fig. 3a) and hTERT-RPE1 (Fig. 3b) cells precipitated with anti-FLAG M2 affinity gel overnight at 4 °C and 1 h at RT, five washes with TBS; immunoblot with antisera to the co-precipitated proteins
substance,measurement,setting,value
gamma-tubulin (from UniProt P23258),binding,[1],binds
same,binding,[2],binds
